Measurements from US20240287139A1, “A NOVEL COMPOUND ACTING AGAINST A SELECT GROUP OF BACTERIA” (priority 2021, published 2024).
At least one compound was matched to its structure with a doubt left.

Chains of the proteins cited; added tags and fusions are not shown. Lines headed by an entry give the natural chain unless they say otherwise; changes in a name come on top.
UniProt P9WG45: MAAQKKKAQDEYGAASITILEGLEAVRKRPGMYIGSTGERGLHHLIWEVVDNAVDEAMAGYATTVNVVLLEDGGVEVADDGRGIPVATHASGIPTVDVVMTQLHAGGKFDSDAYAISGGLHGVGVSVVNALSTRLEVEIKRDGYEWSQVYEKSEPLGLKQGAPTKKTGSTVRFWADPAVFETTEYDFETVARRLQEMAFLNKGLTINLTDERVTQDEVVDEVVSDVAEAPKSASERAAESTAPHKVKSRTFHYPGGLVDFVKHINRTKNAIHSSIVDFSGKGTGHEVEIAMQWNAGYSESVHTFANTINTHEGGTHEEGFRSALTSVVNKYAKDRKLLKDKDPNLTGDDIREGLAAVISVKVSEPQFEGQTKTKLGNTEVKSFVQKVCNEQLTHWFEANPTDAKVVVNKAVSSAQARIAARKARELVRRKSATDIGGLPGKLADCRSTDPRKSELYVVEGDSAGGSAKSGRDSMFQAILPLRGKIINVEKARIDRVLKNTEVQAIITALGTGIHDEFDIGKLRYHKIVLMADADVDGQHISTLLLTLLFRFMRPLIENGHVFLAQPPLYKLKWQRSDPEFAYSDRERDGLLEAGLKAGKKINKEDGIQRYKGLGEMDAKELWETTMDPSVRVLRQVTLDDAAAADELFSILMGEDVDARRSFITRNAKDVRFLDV
UniProt P9WG47, whole entry, looked up: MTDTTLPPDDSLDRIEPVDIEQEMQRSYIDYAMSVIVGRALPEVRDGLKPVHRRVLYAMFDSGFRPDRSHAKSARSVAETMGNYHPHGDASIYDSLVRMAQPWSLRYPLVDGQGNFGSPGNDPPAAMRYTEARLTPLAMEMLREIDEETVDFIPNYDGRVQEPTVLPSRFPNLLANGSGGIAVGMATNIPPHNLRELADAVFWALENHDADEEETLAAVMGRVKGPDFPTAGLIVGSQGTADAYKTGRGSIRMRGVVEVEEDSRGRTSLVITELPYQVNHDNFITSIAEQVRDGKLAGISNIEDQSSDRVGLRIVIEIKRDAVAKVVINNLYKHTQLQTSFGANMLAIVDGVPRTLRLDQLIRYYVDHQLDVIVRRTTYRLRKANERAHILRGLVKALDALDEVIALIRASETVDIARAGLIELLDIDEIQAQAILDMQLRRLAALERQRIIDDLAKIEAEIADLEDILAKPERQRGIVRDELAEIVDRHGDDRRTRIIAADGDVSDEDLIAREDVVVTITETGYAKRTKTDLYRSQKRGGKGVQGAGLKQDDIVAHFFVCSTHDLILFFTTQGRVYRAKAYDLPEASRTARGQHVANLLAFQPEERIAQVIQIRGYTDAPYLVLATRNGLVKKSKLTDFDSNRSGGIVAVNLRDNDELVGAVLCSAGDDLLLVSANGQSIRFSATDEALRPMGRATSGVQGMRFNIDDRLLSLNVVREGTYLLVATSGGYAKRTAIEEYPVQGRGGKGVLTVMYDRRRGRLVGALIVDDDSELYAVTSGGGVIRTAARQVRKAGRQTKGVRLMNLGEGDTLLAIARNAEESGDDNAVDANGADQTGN

Molecular target: MtbGyrase (Mycobacterium tuberculosis, UniProt P9WG45+P9WG47)
Assay: DNA-stimulated ATPase assay (NADH-coupled)

## COc1c(N2C[C@@H]3CCCN[C@@H]3C2)c(F)cc2c(=O)c(C(=O)O)cn(C3CC3)c12 [Moxifloxacin, reference compound]
  overall rate (vmax) of ATPase activity: 22.2±6 ATP·s^−1 per enzyme
